Laboratory results: PubChem BioAssay AID1259308 (NCATS, 2017)

Aim: 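Candidate targets for better recombinant protein yield in mammalian cells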 (primary screen)
System: human HEK293 embryonic kidney cells stably expressing firefly luciferase (HEK-CMV-Luc2-Hygro)
Reagents: single siRNA against human genes, 0.8 pmol siRNA per well
Time to read-out: 72 h
Read-out: 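Reporter luminescence and viable-cell signal on separate replicate plates, given as percent of non-targeting control and median/MAD z-scores, plus per-cell luciferase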
Direction: total luciferase, z-score and total luciferase, % of control: higher = more reporter protein produced; luciferase per cell, z-score: higher = more reporter output per viable cell; viable cells, % of control: higher = more viable cells
Active means: 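Active when the median/MAD z-score for overall luciferase is greater than 3; a gene was taken forward for validation with new siRNAs if at least two of its three siRNAs passed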
Calls: active = raised luciferase; inactive = no rise
Shown is an unselected part of about 59,000 deposited reagents. About 1,510 of all reagents (2.6%) count as active. 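Calls use total luciferase alone and ignore viability, so some active siRNAs may act by altering cell number.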 A number with no mark means an inactive call. The numbers tell different reagents against one gene apart. Reagent sequences are not shown.

total luciferase, z-score | total luciferase, % of control | luciferase per cell, z-score | viable cells, % of control | gene knocked down | reagent no.
-1.06 | 60.8 | -0.098 | 69.7 | EXD3 (GeneID 54932) | 1
2.61 | 134 | 1.85 | 91.9 | EXD3 (GeneID 54932) | 2
-0.0692 | 80.5 | -0.616 | 106 | EXD3 (GeneID 54932) | 3
3.03 (active) | 142 | 1.93 | 95.4 | MAN1A1 (GeneID 4121) | 1
-0.44 | 73.1 | -0.618 | 96.2 | MAN1A1 (GeneID 4121) | 2
0.0794 | 83.5 | 0.0228 | 92.7 | MAN1A1 (GeneID 4121) | 3
2.16 | 125 | 1.37 | 97.3 | ID3 (GeneID 3399) | 1
-0.0965 | 80 | 3.37 | 36.8 | ID3 (GeneID 3399) | 2
1.49 | 112 | 1.14 | 92.4 | ID3 (GeneID 3399) | 3
0.85 | 98.8 | 1.38 | 76.8 | CARTPT (GeneID 9607) | 1
-0.501 | 71.9 | -0.177 | 84.2 | CARTPT (GeneID 9607) | 2
-1.01 | 61.8 | 0.442 | 61.4 | CARTPT (GeneID 9607) | 3
-1.39 | 54.2 | -1.3 | 85.2 | PNPLA7 (GeneID 375775) | 1
-0.1 | 79.9 | -0.0745 | 91 | PNPLA7 (GeneID 375775) | 2
-0.387 | 74.2 | 0.163 | 79.4 | PNPLA7 (GeneID 375775) | 3
-0.0913 | 80.1 | 0.347 | 81.7 | C9orf163 (GeneID 158055) | 1
-0.185 | 78.2 | 0.778 | 71.2 | C9orf163 (GeneID 158055) | 2
-0.415 | 73.6 | -0.0332 | 83 | C9orf163 (GeneID 158055) | 3
-1.17 | 58.7 | -1.27 | 91.5 | ARHGAP11B (GeneID 89839) | 1
0.08 | 83.5 | -0.387 | 103 | ARHGAP11B (GeneID 89839) | 2
-0.889 | 64.2 | -0.433 | 80.4 | ARHGAP11B (GeneID 89839) | 3
1.79 | 117 | 3.27 | 55.4 | CHMP4A (GeneID 29082) | 1
-0.483 | 72.3 | -0.315 | 87.7 | CHMP4A (GeneID 29082) | 2
-1.02 | 61.6 | -1.51 | 103 | CHMP4A (GeneID 29082) | 3
0.74 | 96.6 | 0.555 | 93.3 | MACF1 (GeneID 23499) | 1
0.635 | 94.5 | 0.105 | 103 | MACF1 (GeneID 23499) | 2
1.75 | 117 | 1.38 | 90.5 | MACF1 (GeneID 23499) | 3
0.319 | 88.2 | 0.153 | 94.7 | MACF1 (GeneID 23499) | 4
2.98 | 141 | 4.01 | 54.9 | MACF1 (GeneID 23499) | 5
-0.00219 | 81.8 | 0.279 | 85 | MACF1 (GeneID 23499) | 6
1.41 | 110 | 1.3 | 87.2 | LIG1 (GeneID 3978) | 1
-0.527 | 71.4 | -0.0564 | 81 | LIG1 (GeneID 3978) | 2
0.219 | 86.2 | 0.336 | 88.2 | LIG1 (GeneID 3978) | 3
0.109 | 84.1 | 0.975 | 72.7 | EIF5A2 (GeneID 56648) | 1
-1.43 | 53.5 | -0.582 | 69.6 | EIF5A2 (GeneID 56648) | 2
-0.426 | 73.4 | -0.733 | 99.5 | EIF5A2 (GeneID 56648) | 3
-0.0808 | 80.3 | -0.875 | 113 | MBTPS2 (GeneID 51360) | 1
0.126 | 84.4 | -0.297 | 102 | MBTPS2 (GeneID 51360) | 2
0.436 | 90.5 | 0.509 | 88.5 | MBTPS2 (GeneID 51360) | 3
-1.13 | 59.4 | -0.231 | 70.6 | NMUR1 (GeneID 10316) | 1
-1.8 | 46 | -0.88 | 64.8 | NMUR1 (GeneID 10316) | 2
-0.0531 | 80.8 | -0.0628 | 91.8 | NMUR1 (GeneID 10316) | 3
1.65 | 115 | 0.591 | 110 | UTP14C (GeneID 9724) | 1
-0.426 | 73.4 | -0.576 | 95.5 | UTP14C (GeneID 9724) | 2
-0.0282 | 81.3 | -0.17 | 95 | UTP14C (GeneID 9724) | 3
1.72 | 116 | 2.38 | 69.4 | JADE2 (GeneID 23338) | 1
0.784 | 97.5 | 0.14 | 105 | JADE2 (GeneID 23338) | 2
-0.0432 | 81 | -0.723 | 110 | JADE2 (GeneID 23338) | 3
-0.99 | 62.2 | -0.0502 | 70.4 | HCCAT5 (GeneID 283902) | 1
-0.406 | 73.8 | 0.0449 | 81.5 | HCCAT5 (GeneID 283902) | 2
0.315 | 88.1 | 0.897 | 77.8 | HCCAT5 (GeneID 283902) | 3
0.399 | 89.8 | 0.319 | 92.3 | CTLA4 (GeneID 1493) | 1
1.19 | 106 | 1.77 | 74 | CTLA4 (GeneID 1493) | 2
-1.34 | 55.2 | 0.00868 | 61.6 | CTLA4 (GeneID 1493) | 3
0.813 | 98 | -0.237 | 117 | NAPEPLD (GeneID 222236) | 1
-0.124 | 79.4 | -0.522 | 102 | NAPEPLD (GeneID 222236) | 2
1.65 | 115 | 0.718 | 106 | NAPEPLD (GeneID 222236) | 3
1.06 | 103 | 0.334 | 105 | CRTAC1 (GeneID 55118) | 1
0.376 | 89.4 | -0.306 | 108 | CRTAC1 (GeneID 55118) | 2
1.13 | 104 | 1.14 | 86.5 | CRTAC1 (GeneID 55118) | 3
-0.426 | 73.4 | 0.251 | 76.8 | MAP1LC3B2 (GeneID 643246) | 1
3.34 (active) | 148 | 3.11 | 73.1 | MAP1LC3B2 (GeneID 643246) | 2
0.63 | 94.4 | 0.628 | 89.4 | MAP1LC3B2 (GeneID 643246) | 3
1.5 | 112 | 2.17 | 70.6 | KRABD5P1 (GeneID 342426) | 1
2.06 | 123 | 1.37 | 95.8 | KRABD5P1 (GeneID 342426) | 2
0.326 | 88.4 | -0.0643 | 100 | KRABD5P1 (GeneID 342426) | 3
0.35 | 88.9 | 0.0868 | 97 | CENPVL3 (GeneID 347549) | 1
-0.0419 | 81.1 | -0.263 | 97.1 | CENPVL3 (GeneID 347549) | 2
1.07 | 103 | 0.767 | 94.2 | CENPVL3 (GeneID 347549) | 3
-0.644 | 69.1 | -0.247 | 82.4 | SAMD5 (GeneID 389432) | 1
-0.537 | 71.2 | -0.297 | 86 | SAMD5 (GeneID 389432) | 2
-0.315 | 75.6 | -0.211 | 89.3 | SAMD5 (GeneID 389432) | 3
1.13 | 104 | 0.816 | 94 | SLC22A5 (GeneID 6584) | 1
-1.65 | 49.2 | -0.829 | 68.3 | SLC22A5 (GeneID 6584) | 2
-2.29 | 36.4 | -1.61 | 62.2 | SLC22A5 (GeneID 6584) | 3

Reprinted from the listing for reference:
total luciferase, z-score | total luciferase, % of control | luciferase per cell, z-score | viable cells, % of control | gene knocked down | reagent no.
-0.415 | 73.6 | -0.0332 | 83 | C9orf163 (GeneID 158055) | 3
-1.17 | 58.7 | -1.27 | 91.5 | ARHGAP11B (GeneID 89839) | 1
0.08 | 83.5 | -0.387 | 103 | ARHGAP11B (GeneID 89839) | 2
-0.889 | 64.2 | -0.433 | 80.4 | ARHGAP11B (GeneID 89839) | 3
1.79 | 117 | 3.27 | 55.4 | CHMP4A (GeneID 29082) | 1
